# Measurements as given in the supplement of paper PMC10032668.
# Protein sequences, listed by entry. Tags and fused reporters are not part of them.
# HIST1H1E, P10412, UniProt P10412, whole entry: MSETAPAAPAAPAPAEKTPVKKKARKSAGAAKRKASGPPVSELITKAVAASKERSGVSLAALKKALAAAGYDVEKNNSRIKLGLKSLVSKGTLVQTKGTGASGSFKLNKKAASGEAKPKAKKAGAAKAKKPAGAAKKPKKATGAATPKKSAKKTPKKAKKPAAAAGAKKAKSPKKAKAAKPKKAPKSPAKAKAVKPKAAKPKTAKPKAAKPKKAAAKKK
# IK, Q13123, UniProt Q13123, whole entry: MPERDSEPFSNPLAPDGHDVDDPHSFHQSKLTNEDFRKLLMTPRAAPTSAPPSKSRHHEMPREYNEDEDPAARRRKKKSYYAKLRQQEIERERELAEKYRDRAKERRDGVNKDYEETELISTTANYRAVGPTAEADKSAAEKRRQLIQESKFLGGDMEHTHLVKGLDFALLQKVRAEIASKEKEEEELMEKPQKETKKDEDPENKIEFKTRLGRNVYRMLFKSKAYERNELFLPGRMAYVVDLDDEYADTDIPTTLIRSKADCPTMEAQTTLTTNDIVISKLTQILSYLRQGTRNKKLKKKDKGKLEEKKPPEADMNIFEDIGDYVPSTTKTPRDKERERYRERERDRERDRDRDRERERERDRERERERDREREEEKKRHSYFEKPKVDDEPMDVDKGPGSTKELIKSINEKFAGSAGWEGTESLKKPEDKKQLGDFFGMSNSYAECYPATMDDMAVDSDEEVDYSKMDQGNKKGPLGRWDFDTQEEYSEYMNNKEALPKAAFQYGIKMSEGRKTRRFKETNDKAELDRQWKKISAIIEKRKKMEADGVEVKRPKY
# INTS2, Q9H0H0, UniProt Q9H0H0, whole entry: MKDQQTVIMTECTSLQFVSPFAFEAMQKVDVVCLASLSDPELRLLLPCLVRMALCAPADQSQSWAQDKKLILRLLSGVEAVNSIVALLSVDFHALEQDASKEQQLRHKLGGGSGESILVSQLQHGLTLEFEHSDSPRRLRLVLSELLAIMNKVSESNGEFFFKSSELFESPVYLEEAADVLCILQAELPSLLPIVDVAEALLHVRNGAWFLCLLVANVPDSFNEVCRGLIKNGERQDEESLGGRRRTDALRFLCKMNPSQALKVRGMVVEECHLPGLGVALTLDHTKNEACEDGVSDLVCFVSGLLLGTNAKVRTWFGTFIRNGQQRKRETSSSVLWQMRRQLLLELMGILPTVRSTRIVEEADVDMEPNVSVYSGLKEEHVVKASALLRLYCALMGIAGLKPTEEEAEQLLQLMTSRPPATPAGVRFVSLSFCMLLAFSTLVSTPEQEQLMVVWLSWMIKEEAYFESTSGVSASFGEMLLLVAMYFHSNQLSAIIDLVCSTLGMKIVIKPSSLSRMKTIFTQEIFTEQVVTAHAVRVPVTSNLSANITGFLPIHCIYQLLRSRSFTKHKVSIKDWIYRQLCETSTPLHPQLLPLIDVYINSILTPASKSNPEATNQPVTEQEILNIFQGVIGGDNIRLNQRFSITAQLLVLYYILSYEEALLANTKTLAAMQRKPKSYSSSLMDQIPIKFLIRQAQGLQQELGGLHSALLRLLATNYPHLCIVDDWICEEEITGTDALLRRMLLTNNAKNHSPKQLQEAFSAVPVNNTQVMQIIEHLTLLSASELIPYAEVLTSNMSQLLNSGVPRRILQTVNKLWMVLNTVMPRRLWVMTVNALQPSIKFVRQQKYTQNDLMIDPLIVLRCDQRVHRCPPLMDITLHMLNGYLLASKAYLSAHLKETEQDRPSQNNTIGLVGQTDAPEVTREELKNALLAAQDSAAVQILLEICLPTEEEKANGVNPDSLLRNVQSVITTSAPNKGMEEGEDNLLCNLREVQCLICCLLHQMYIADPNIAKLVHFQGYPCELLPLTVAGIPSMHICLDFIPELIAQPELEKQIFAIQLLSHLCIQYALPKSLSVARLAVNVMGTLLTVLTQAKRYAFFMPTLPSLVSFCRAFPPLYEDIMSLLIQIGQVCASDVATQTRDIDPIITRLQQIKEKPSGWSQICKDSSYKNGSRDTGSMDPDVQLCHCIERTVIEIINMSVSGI
# MAD2L1, Q13257, UniProt Q13257, whole entry: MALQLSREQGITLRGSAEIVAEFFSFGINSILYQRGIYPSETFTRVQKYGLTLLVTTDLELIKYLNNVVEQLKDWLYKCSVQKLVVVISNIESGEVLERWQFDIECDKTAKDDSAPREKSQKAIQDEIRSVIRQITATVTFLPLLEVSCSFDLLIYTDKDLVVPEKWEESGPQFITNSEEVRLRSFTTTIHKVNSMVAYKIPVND
# RCC2, Q9P258, UniProt Q9P258, whole entry: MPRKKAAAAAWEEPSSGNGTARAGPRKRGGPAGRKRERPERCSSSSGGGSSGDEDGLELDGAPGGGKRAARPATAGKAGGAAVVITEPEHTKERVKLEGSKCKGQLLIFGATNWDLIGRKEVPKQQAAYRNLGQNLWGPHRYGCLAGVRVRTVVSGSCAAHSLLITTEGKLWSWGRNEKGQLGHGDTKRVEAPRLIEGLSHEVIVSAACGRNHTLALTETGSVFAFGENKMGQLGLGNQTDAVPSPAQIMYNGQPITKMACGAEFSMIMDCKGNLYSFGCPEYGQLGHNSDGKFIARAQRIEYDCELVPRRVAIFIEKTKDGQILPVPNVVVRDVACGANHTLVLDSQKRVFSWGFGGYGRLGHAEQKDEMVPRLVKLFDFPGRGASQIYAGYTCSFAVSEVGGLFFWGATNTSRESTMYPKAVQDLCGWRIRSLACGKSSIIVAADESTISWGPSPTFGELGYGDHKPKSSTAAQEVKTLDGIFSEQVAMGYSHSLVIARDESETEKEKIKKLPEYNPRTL
# RPS6KA3, P51812, UniProt P51812, whole entry: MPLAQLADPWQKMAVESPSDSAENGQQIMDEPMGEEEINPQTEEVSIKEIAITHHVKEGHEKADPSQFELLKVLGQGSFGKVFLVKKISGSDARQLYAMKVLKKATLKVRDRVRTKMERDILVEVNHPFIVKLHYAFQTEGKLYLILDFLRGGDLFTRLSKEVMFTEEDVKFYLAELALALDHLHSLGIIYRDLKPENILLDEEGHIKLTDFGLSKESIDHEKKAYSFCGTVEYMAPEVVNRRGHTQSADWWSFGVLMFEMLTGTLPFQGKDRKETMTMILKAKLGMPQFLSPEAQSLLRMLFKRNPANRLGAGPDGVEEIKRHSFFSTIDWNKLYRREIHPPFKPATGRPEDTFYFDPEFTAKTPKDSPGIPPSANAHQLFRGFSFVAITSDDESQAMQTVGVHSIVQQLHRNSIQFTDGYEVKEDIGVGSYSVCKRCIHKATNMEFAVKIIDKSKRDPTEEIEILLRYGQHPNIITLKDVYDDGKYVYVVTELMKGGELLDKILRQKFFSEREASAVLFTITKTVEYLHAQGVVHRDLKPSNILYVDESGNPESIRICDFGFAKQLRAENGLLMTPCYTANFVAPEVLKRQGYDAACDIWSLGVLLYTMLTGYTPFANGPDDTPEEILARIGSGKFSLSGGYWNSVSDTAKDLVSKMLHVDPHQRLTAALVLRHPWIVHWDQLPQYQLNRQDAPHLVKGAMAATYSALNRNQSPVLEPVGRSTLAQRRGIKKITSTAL
# DNM1L, O00429, UniProt O00429, whole entry: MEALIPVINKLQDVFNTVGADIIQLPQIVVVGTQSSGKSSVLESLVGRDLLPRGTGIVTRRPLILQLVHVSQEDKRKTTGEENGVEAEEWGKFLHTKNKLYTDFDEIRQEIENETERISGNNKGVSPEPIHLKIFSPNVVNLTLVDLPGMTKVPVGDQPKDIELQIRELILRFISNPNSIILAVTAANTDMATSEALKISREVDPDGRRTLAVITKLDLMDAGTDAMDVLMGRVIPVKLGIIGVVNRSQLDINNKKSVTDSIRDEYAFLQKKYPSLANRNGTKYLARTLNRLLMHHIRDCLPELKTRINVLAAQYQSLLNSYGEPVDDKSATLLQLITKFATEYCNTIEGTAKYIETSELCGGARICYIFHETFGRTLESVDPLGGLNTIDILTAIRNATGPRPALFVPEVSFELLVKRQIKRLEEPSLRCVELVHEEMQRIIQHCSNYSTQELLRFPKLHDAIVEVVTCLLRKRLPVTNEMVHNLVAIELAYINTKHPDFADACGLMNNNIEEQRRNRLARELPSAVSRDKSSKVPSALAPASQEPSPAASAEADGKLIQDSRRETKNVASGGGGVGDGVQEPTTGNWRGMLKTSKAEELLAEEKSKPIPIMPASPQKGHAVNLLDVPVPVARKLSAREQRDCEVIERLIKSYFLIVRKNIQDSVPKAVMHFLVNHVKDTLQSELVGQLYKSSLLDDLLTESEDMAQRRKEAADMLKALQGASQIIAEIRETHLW
# H2AFY2, Q9P0M6, UniProt Q9P0M6, whole entry: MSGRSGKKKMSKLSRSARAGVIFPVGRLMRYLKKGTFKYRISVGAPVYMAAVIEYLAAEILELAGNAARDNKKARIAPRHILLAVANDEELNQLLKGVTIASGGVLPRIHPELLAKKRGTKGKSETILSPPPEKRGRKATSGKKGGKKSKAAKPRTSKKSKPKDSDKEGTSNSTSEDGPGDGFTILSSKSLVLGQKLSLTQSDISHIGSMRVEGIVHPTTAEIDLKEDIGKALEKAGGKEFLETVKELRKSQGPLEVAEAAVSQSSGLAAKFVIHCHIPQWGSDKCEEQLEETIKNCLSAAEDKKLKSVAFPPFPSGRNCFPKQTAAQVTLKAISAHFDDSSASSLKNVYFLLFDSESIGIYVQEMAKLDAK
# INTS7, Q9NVH2, UniProt Q9NVH2, whole entry: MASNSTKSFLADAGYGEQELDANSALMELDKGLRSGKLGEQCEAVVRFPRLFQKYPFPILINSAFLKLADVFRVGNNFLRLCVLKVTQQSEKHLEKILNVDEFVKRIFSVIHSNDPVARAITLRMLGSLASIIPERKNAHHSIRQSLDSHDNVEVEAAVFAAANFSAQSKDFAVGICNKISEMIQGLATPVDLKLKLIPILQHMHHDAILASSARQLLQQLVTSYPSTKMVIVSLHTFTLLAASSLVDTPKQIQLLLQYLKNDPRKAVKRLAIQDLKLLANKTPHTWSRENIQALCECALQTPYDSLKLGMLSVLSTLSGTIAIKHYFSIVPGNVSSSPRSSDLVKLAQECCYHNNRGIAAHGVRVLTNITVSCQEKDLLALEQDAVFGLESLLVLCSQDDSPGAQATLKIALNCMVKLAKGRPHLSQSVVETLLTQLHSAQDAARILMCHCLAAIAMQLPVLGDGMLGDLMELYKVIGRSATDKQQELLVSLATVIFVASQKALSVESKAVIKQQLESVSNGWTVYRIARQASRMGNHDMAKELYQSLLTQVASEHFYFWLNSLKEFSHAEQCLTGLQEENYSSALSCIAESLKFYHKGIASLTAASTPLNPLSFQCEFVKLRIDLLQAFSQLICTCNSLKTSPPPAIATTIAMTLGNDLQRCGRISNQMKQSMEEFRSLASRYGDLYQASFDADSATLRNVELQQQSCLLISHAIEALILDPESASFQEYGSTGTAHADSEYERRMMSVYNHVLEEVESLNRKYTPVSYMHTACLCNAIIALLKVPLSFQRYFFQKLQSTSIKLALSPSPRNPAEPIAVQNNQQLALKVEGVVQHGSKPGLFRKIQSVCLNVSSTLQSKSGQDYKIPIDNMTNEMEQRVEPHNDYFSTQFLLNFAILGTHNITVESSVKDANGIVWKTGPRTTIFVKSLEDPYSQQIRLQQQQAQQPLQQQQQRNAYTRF
# TUBB8, Q3ZCM7, UniProt Q3ZCM7, whole entry: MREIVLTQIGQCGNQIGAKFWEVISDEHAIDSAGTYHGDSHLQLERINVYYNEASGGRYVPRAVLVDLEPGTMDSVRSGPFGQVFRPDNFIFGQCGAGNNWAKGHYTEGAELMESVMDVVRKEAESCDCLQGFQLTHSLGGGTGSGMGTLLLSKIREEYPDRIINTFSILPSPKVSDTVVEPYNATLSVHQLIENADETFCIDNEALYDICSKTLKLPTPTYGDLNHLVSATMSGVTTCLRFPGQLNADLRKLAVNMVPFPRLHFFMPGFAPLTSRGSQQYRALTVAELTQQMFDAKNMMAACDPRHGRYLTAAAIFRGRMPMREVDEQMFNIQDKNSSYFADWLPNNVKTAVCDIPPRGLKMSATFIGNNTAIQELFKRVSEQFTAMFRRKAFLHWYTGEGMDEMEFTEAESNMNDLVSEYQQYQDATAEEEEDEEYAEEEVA
# The other results are listed elsewhere or left out. Only hits are listed; about a third recur on repeated control peptides.
# Assays:
# Assay in all cases: PRISMA enrichment of interactor (LFQ) in peptide spot vs all other peptide spots (log2 fold change); higher = stronger / more specific binding of the interactor to the peptide
# DHCR24, Q15392 = target: DHCR24, Q15392
# Description: (§1)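 PRISMA: 15-aa overlapping tiles (offset 8 aa) of 60 microproteins, plus SOS1/GLUT1 control peptides, were spot-synthesized on cellulose membranes in triplicate. Membranes were incubated with benzonase-treated HEK293T lysate, and bound proteins were identified by LC-MS/MS with LFQ. Enrichment is the log2 fold change of each protein in one spot versus all other spots. Only interactors passing the significance cutoff are listed.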
# FLII, Q13045 = target: FLII, Q13045
# Description: as §1
# HIST1H1E, P10412 = target: HIST1H1E, P10412
# Description: as §1
# IK, Q13123 = target: IK, Q13123
# Description: as §1
# INTS2, Q9H0H0 = target: INTS2, Q9H0H0
# Description: as §1
# POP1, Q99575 = target: POP1, Q99575
# Description: as §1
# RNF213, Q63HN8 = target: RNF213, Q63HN8
# Description: as §1
# RRP12, Q5JTH9 = target: RRP12, Q5JTH9
# Description: as §1
# DNAJA3, Q96EY1 = target: DNAJA3, Q96EY1
# Description: as §1
# MAD2L1, Q13257 = target: MAD2L1, Q13257
# Description: as §1
# PLS3, P13797 = target: PLS3, P13797
# Description: as §1
# RCC2, Q9P258 = target: RCC2, Q9P258
# Description: as §1
# RPS6KA3, P51812 = target: RPS6KA3, P51812
# Description: as §1
# DNM1L, O00429 = target: DNM1L, O00429
# Description: as §1
# EBP, Q15125 = target: EBP, Q15125
# Description: as §1
# FAM50A, Q14320 = target: FAM50A, Q14320
# Description: as §1
# H2AFY2, Q9P0M6 = target: H2AFY2, Q9P0M6
# Description: as §1
# INTS7, Q9NVH2 = target: INTS7, Q9NVH2
# Description: as §1
# MRPL27, Q9P0M9 = target: MRPL27, Q9P0M9
# Description: as §1
# MRRF, Q96E11 = target: MRRF, Q96E11
# Description: as §1
# NDUFAB1, O14561 = target: NDUFAB1, O14561
# Description: as §1
# TUBB8, Q3ZCM7 = target: TUBB8, Q3ZCM7
# Description: as §1
# WDR46, O15213 = target: WDR46, O15213
# Description: as §1
# ZG16B, Q96DA0 = target: ZG16B, Q96DA0
# Description: as §1
# EEFSEC, P57772 = target: EEFSEC, P57772
# Description: as §1
# GNL3L, Q9NVN8 = target: GNL3L, Q9NVN8
# Description: as §1
# GRB10, Q13322 = target: GRB10, Q13322
# Description: as §1
# LTV1, Q96GA3 = target: LTV1, Q96GA3
# Description: as §1
# SLAIN2, Q9P270 = target: SLAIN2, Q9P270
# Description: as §1
binder,measurement,setting,value
MKWTQHVKTILSRSL [RP11-620J15.3],PRISMA enrichment of interactor (log2),"DHCR24, Q15392",4.85
same,PRISMA enrichment of interactor (log2),"FLII, Q13045",5.84
same,PRISMA enrichment of interactor (log2),"HIST1H1E, P10412",5.98
same,PRISMA enrichment of interactor (log2),"IK, Q13123",4.43
same,PRISMA enrichment of interactor (log2),"INTS2, Q9H0H0",4.61
same,PRISMA enrichment of interactor (log2),"POP1, Q99575",8.29
same,PRISMA enrichment of interactor (log2),"RNF213, Q63HN8",8.89
same,PRISMA enrichment of interactor (log2),"RRP12, Q5JTH9",6.86
AWRYMGGFAKSVSFS [NDUFB3],PRISMA enrichment of interactor (log2),"DNAJA3, Q96EY1",7.3
same,PRISMA enrichment of interactor (log2),"MAD2L1, Q13257",4.35
same,PRISMA enrichment of interactor (log2),"PLS3, P13797",5
same,PRISMA enrichment of interactor (log2),"RCC2, Q9P258",4.53
same,PRISMA enrichment of interactor (log2),"RPS6KA3, P51812",4.14
FAKSKSKNILVRMVS [MRPL33],PRISMA enrichment of interactor (log2),"DNM1L, O00429",6.19
LRAFHVTPGARRRLV [EBAG9],PRISMA enrichment of interactor (log2),"EBP, Q15125",4.67
same,PRISMA enrichment of interactor (log2),"FAM50A, Q14320",4.21
same,PRISMA enrichment of interactor (log2),"H2AFY2, Q9P0M6",5.55
same,PRISMA enrichment of interactor (log2),"INTS7, Q9NVH2",5.41
same,PRISMA enrichment of interactor (log2),"MRPL27, Q9P0M9",11.4
same,PRISMA enrichment of interactor (log2),"MRRF, Q96E11",4.74
same,PRISMA enrichment of interactor (log2),"NDUFAB1, O14561",3.87
same,PRISMA enrichment of interactor (log2),"TUBB8, Q3ZCM7",5.7
same,PRISMA enrichment of interactor (log2),"WDR46, O15213",5.97
same,PRISMA enrichment of interactor (log2),"ZG16B, Q96DA0",4.12
MIIGPKLTALPKRQR [SNHG8],PRISMA enrichment of interactor (log2),"EEFSEC, P57772",7.16
same,PRISMA enrichment of interactor (log2),"GNL3L, Q9NVN8",5.73
same,PRISMA enrichment of interactor (log2),"GRB10, Q13322",4.86
same,PRISMA enrichment of interactor (log2),"LTV1, Q96GA3",7.04
same,PRISMA enrichment of interactor (log2),"SLAIN2, Q9P270",6.03

# An excerpt of these results, as tab-separated lines:
binder	measurement	setting	value
LRAFHVTPGARRRLV [EBAG9]	PRISMA enrichment of interactor (log2)	EBP, Q15125	4.67
same	PRISMA enrichment of interactor (log2)	FAM50A, Q14320	4.21
